# Experimental data published in US9273006B2, “Anabolic compounds for treating and preventing bone loss diseases” (SYDDANSK UNIVERSITET, priority 2012, dated 2016).
# Tested on: hMSC-TERT
# Test: DNA microarray analysis under osteogenic culture conditions
# Assay type: cell-based, human
# Details: 25 μM, 24 hours after treatment
structure (smiles),measurement,value
"CNCCNS(=O)(=O)c1cccc2cnccc12 [H-8, N-[2-(methylamino)ethyl]-5-isoquinolinesulfonamide]",share of regulated genes that are skeletal development genes,19%
